Test results published in the supplement of paper PMC12823440, “Inhibitors supercharge kinase turnover through native proteolytic circuits” (Nature, 2025).
Structures can show the parent of a compound that is named as a salt. The list shows a part of the results. Hit calls seldom repeat between salt and free forms of one compound.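 In K562 cells expressing nanoluciferase-fused kinases, luminescence was recorded at 4 h intervals between 2 and 18 h, normalized as percent of control with DMSO at 100% and a positive control at 0%. A significant (2 sigma) signal drop marks a time point as decreased. The authors' rule for a hit is not shown and takes in more than the number of time points.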

Protein sequences, listed by entry. Tags and fused reporters are not part of them. Lines headed by an entry give the natural chain unless they say otherwise; changes in a name come on top.
UniProt P48729: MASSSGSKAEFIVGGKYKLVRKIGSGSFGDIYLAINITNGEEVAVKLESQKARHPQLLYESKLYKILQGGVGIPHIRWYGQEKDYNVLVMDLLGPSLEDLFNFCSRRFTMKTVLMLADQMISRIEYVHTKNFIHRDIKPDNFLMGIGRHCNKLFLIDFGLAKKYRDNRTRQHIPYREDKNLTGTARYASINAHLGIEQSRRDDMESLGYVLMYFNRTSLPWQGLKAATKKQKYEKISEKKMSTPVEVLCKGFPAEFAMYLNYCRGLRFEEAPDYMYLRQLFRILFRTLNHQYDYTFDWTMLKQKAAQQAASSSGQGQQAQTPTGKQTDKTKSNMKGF
UniProt P48730: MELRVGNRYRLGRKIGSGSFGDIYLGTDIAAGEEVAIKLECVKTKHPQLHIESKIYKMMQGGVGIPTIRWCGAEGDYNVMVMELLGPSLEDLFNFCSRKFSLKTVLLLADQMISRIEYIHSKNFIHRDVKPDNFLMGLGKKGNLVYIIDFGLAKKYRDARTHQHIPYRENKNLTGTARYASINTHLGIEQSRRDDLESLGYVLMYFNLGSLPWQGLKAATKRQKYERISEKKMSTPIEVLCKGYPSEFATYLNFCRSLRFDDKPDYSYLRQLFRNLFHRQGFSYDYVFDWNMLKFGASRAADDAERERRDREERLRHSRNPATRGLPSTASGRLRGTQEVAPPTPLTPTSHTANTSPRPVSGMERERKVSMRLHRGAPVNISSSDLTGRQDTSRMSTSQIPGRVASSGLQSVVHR
UniProt Q08345: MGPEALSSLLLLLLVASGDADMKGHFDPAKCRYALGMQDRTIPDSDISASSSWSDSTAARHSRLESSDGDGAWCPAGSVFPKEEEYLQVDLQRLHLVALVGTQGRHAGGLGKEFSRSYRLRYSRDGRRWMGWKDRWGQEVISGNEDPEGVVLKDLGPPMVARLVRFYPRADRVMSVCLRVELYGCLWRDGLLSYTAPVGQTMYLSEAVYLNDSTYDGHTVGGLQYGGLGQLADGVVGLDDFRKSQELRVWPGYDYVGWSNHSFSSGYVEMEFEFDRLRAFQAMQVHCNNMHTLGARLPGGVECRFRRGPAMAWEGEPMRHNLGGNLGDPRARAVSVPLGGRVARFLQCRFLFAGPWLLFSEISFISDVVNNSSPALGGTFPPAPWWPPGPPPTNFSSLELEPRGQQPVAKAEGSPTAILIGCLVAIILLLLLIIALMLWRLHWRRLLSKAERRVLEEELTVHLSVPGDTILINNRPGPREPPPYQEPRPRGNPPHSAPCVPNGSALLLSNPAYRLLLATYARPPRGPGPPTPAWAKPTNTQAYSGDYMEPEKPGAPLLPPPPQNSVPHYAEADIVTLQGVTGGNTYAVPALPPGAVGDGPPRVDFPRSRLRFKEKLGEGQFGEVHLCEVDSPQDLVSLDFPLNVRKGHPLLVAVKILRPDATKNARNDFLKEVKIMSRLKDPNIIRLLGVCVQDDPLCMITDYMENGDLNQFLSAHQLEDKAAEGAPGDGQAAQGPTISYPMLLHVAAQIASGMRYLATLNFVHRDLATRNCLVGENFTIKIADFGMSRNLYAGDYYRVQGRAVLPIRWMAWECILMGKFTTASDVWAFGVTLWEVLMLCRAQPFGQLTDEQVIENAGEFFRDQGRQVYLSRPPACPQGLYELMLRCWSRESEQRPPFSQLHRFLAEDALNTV
UniProt Q9Y463, whole entry, looked up: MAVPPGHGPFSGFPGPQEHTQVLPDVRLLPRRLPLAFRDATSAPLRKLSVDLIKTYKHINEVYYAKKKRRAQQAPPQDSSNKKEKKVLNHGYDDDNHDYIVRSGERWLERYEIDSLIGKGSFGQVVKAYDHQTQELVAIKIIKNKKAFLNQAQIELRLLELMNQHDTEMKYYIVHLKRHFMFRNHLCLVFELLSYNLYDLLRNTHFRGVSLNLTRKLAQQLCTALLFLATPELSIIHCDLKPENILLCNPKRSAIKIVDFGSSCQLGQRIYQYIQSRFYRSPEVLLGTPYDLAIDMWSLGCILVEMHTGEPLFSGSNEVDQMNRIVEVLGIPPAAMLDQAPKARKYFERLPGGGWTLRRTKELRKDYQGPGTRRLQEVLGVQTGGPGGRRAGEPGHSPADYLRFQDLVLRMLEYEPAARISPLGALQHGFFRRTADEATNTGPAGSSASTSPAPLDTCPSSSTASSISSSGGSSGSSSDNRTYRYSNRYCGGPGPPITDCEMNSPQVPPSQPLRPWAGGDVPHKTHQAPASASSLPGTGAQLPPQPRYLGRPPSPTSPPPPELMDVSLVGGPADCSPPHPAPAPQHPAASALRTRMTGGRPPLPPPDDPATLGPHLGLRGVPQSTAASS
UniProt Q92630: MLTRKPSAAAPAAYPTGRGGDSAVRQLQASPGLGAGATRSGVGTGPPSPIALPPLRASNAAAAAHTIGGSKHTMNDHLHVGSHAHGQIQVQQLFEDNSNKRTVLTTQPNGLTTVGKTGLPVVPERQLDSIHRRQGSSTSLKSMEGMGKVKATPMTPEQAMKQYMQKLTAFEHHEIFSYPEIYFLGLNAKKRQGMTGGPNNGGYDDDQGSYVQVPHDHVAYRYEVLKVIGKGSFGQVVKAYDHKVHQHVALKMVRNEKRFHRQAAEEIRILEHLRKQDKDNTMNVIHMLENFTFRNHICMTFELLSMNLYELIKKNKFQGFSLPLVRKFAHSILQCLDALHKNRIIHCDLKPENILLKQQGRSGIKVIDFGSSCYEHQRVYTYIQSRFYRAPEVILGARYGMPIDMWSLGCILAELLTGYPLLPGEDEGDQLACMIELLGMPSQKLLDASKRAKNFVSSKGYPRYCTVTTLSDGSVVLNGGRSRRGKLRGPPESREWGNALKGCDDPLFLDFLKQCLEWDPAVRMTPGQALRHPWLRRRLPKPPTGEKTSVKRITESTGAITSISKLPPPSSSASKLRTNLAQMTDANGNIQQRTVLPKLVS

What was measured:
Assay in all cases: number of time points (of 5) at which kinase-Nluc abundance scored as decreased, DMSO-normalised (count); higher = more persistent destabilization
Conditions in all cases: K562; 2-18 h
CSNK1A1 = CSNK1A1 (UniProt P48729)
CSNK1D = CSNK1D (UniProt P48730)
DDR1 = DDR1 (UniProt Q08345)
DYRK1B = DYRK1B (UniProt Q9Y463)
DYRK2 = DYRK2 (UniProt Q92630)
EGFR = EGFR (UniProt P00533)
EGFR_G719S = EGFR_G719S (UniProt P00533)
EGFR_G719S_T790M = EGFR_G719S_T790M (UniProt P00533)
EGFR_L718V = EGFR_L718V (UniProt P00533)
EGFR_L858R = EGFR_L858R (UniProt P00533)

Structure (SMILES)	number of time points (CSNK1A1)	number of time points (CSNK1D)	number of time points (DDR1)	number of time points (DYRK1B)	number of time points (DYRK2)	number of time points (EGFR)	number of time points (EGFR_G719S)	number of time points (EGFR_G719S_T790M)	number of time points (EGFR_L718V)	number of time points (EGFR_L858R)
Cn1cc(-c2ccc(F)c(C(F)(F)F)c2)nc1C1CCN(c2ncnc3[nH]ncc23)CC1 (10 µM)	0	0	0	0	0	0	0	0	0	0
C[C@@H]1C[C@H]2O[C@@]3(O[C@@H]2C(C)(C)O)[C@H](O)[C@@]2(C)[C@@H]4CC[C@H]5C(C)(C)[C@@H](O[C@@H]6OC[C@H](O)[C@H](O)[C@H]6O)CC[C@@]56C[C@@]46CC[C@]2(C)[C@@H]13 [Cimiracemoside C] (10 µM)	0	0	0	0	0	0	0	0	0	0
CN(C)c1ncnc2nc[nH]c12 [6-(Dimethylamino)purine] (10 µM)	0	0	0	0	0	0	0	0	0	0
Nc1cccc(S(=O)(=O)N2CCCN(S(=O)(=O)c3ccc4c(c3)OCCO4)CC2)c1 (10 µM)	0	0	0	0	0	0	0	0	0	0
CCOC(=O)c1c2c3c(cccc3[nH]c1=O)C(=O)c1ccccc1-2 (10 µM)	0	0	0	0	0	0	0	0	0	0
CCc1cccc(CC)c1NC(=O)c1nn(C)c2c1CCc1cnc(Nc3ccc(C(=O)NC4CCN(C)CC4)cc3OC(F)(F)F)nc1-2 (2 µM)	0	0	0	0	0	0	0	0	0	0
CC(C)Oc1ccc(-c2cnc3c(-c4ccnc5ccccc45)cnn3c2)cc1 (10 µM)	0	0	0	0	0	0	0	0	0	0
COC1(C(=O)N[C@@H](C)c2ccc(-n3cc(F)cn3)nc2)CCC(c2nc(C)cc(Nc3cc(C)[nH]n3)n2)CC1 (stereo partly drawn) [trans-Pralsetinib] (2.5 µM)	0	0	0	0	0	0	0	0	0	0
Nc1cc(C(F)F)c(-c2nc(N3C4CCC3COC4)nc(N3C4CCC3COC4)n2)cn1 (2.5 µM)	4	0	0	0	0	0	3	0	0	0
[O-][n+]1cccc(-c2nc3c(Cl)cccc3cc2[C@@H](Nc2ncnc3cccnc23)C(F)(F)F)c1 [Seletalisib] (10 µM)	0	0	0	0	0	0	0	0	0	0
CN1C(=O)NC(Cc2c[nH]c3c(Cl)cccc23)C1=O (racemic) [Necrostatin 2 (racemate)] (10 µM)	0	0	0	0	0	0	0	0	0	0
CNC(=O)c1cc(Oc2ccc3nc(N[C@@H]4CCCC[C@H]4O)sc3c2)ccn1 (10 µM)	0	0	0	0	0	0	0	0	0	0
CCc1ccc(C(=O)COc2ccc(CC3SC(=O)NC3=O)cc2)nc1 (stereo not given) (10 µM)	0	0	0	0	0	0	0	0	0	0
CCC(C)(C)C(=O)N(O)Cc1ccccc1 (10 µM)	0	0	0	0	0	0	0	0	0	0
CCN1C(=O)CNc2ncc(-c3ccc(-c4nc[nH]n4)nc3C)nc21 [CC-115 (hydrochloride)] (2.5 µM)	3	3	4	2	4	2	2	2	1	3
COc1ccc2c(=O)c(-c3ccccc3)coc2c1 [7-Methoxyisoflavone] (10 µM)	0	0	0	0	0	0	0	0	0	0
Fc1c(Br)cccc1Nc1ncnc2cc3c(cc12)OCCO3 (2.5 µM)	0	0	0	0	0	0	0	1	1	0
Nc1[nH]c(=O)nc2c1ncn2[C@@H]1O[C@H](CO)[C@@H](O)[C@H]1O [Crotonoside] (10 µM)	0	0	0	0	0	0	0	0	0	0

Molecules listed so far containing fluorine, in the order listed:
Structure (SMILES)	number of time points (CSNK1A1)	number of time points (CSNK1D)	number of time points (DDR1)	number of time points (DYRK1B)	number of time points (DYRK2)	number of time points (EGFR)	number of time points (EGFR_G719S)	number of time points (EGFR_G719S_T790M)	number of time points (EGFR_L718V)	number of time points (EGFR_L858R)
Cn1cc(-c2ccc(F)c(C(F)(F)F)c2)nc1C1CCN(c2ncnc3[nH]ncc23)CC1 (10 µM)	0	0	0	0	0	0	0	0	0	0
CCc1cccc(CC)c1NC(=O)c1nn(C)c2c1CCc1cnc(Nc3ccc(C(=O)NC4CCN(C)CC4)cc3OC(F)(F)F)nc1-2 (2 µM)	0	0	0	0	0	0	0	0	0	0
COC1(C(=O)N[C@@H](C)c2ccc(-n3cc(F)cn3)nc2)CCC(c2nc(C)cc(Nc3cc(C)[nH]n3)n2)CC1 (stereo partly drawn) [trans-Pralsetinib] (2.5 µM)	0	0	0	0	0	0	0	0	0	0
Nc1cc(C(F)F)c(-c2nc(N3C4CCC3COC4)nc(N3C4CCC3COC4)n2)cn1 (2.5 µM)	4	0	0	0	0	0	3	0	0	0
[O-][n+]1cccc(-c2nc3c(Cl)cccc3cc2[C@@H](Nc2ncnc3cccnc23)C(F)(F)F)c1 [Seletalisib] (10 µM)	0	0	0	0	0	0	0	0	0	0
Fc1c(Br)cccc1Nc1ncnc2cc3c(cc12)OCCO3 (2.5 µM)	0	0	0	0	0	0	0	1	1	0

Next part.

Structure (SMILES)	number of time points (CSNK1A1)	number of time points (CSNK1D)	number of time points (DDR1)	number of time points (DYRK1B)	number of time points (DYRK2)	number of time points (EGFR)	number of time points (EGFR_G719S)	number of time points (EGFR_G719S_T790M)	number of time points (EGFR_L718V)	number of time points (EGFR_L858R)
C[C@@H]1COCCN1c1cc(=O)n2c(n1)N(Cc1cncc(Cl)c1)[C@H](C(F)(F)F)CC2 (10 µM)	0	0	0	0	3	0	0	0	0	0
CC(C)n1cnc2c(Nc3cccc(Cl)c3)nc(NCCO)nc21 (10 µM)	0	0	0	0	1	0	0	0	0	0
N#C/C(=C\c1ccc2oc(=O)[nH]c2c1)C(=O)c1ccc(O)c(O)c1 (10 µM)	0	0	0	0	0	0	0	0	0	0
O=C(Nc1ccc(Cl)cc1)C1CCCN(C(=O)c2cccc(-c3ccco3)c2)C1 (stereo not given) (2.5 µM)	0	0	0	0	0	0	0	0	0	0
CCN(C)C(=O)c1ccc2c(C(=Nc3ccc(CN4CCCCC4)cc3)c3ccccc3)c(O)[nH]c2c1 (2.5 µM)	0	0	0	0	0	0	0	0	0	0
Cc1ccc(-c2nn(C(C)(C)CNC(=O)c3ccncc3)c3ncnc(N)c23)cc1 (2.5 µM)	0	0	0	0	0	0	0	0	0	0
CSc1ccc(CN2CCCC(Nc3ccc4[nH]ncc4c3)C2)cc1 (stereo not given) [Rho-Kinase-IN-1] (10 µM)	0	0	0	0	0	0	0	0	0	0
O=C1NC(=O)C(c2cn(-c3ccccc3)nc2-c2ccc(F)cc2)N1 (stereo not given) (10 µM)	0	0	0	0	0	0	0	0	0	0
COc1ccc2c(c1)c(C1=C(c3c[nH]c4ccccc34)C(=O)NC1=O)cn2CCCN(C)C (10 µM)	0	0	0	0	0	0	0	0	0	0
CCOc1ccccc1C=C1C(=O)Nc2ccccc21 (10 µM)	0	0	1	0	1	0	0	1	0	0
COc1ccc(CNc2nc(N(CCO)CCO)nc3c2ncn3C(C)C)cc1 (2.5 µM)	0	0	0	0	0	0	0	0	0	0
COc1ccc2c(c1OC)OC1c3ccc(O)cc3OCC21 (stereo not given) [Methylnissolin] (10 µM)	0	0	0	0	0	0	0	0	0	0
O=C(CO)N1CCC(c2n[nH]c(-c3ccc(Cl)cc3)c2-c2ccncn2)CC1 (10 µM)	0	0	0	0	0	0	0	0	0	0
COc1cc(N2CCC(O)CC2)ccc1Nc1cc(Nc2ccccc2S(=O)(=O)C(C)C)c2cc[nH]c2n1 (10 µM)	0	0	0	0	0	0	0	0	0	0
CC(C)(C)C(=O)N1N=CC[C@H]1c1ccccc1 (10 µM)	0	0	0	0	0	0	0	0	0	0
O=c1cc(-c2ccc(O)c(O)c2O)oc2ccccc12 (10 µM)	0	0	0	0	0	0	0	0	0	0
Cn1cc(-c2ccc3nnc(C(F)(F)c4ccc5ncccc5c4)n3n2)cn1 (10 µM)	0	0	0	0	0	0	0	0	0	0
